Measured values published in the supplement of paper PMC10849652.
This is one part of the list.

Amino acid sequences for entries named in this document (tags omitted). A change or cut given only in a name is not applied to a line headed by its entry.
UniProt Q96CW5, whole entry, looked up: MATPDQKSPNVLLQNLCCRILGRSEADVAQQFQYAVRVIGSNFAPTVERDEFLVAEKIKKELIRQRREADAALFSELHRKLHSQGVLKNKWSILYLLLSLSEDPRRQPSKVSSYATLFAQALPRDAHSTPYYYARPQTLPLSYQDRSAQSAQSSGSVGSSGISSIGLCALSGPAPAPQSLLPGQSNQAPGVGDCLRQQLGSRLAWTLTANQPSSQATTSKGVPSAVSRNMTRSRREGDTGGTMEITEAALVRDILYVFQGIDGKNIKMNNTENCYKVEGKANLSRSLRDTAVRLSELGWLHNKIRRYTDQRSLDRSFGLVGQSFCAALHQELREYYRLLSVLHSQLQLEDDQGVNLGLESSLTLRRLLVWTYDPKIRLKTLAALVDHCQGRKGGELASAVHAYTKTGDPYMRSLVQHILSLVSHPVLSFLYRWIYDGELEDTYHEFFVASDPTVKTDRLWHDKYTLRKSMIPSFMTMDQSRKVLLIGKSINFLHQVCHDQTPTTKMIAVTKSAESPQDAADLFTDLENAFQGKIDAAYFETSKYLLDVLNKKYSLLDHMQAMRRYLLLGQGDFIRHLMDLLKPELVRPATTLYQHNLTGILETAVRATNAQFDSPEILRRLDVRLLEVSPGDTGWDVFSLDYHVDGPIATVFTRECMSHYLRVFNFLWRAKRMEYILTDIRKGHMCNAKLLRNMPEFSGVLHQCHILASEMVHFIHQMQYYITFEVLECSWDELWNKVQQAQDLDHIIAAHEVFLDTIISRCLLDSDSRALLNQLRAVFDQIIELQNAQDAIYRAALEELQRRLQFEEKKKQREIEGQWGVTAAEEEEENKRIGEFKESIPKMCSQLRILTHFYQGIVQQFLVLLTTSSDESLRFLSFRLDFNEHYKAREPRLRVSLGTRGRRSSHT
UniProt P07437, whole entry, looked up: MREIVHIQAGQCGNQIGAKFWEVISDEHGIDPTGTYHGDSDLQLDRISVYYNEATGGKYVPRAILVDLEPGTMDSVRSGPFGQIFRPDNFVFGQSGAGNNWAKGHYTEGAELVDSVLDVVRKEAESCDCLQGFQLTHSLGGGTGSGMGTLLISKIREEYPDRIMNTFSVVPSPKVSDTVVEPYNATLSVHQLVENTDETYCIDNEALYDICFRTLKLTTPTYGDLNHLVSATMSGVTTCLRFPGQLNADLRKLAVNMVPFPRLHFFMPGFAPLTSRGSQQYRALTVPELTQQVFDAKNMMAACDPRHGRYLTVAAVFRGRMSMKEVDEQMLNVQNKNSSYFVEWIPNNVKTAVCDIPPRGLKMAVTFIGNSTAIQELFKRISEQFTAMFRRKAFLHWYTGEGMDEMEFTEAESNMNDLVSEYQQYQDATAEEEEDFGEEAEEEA
UniProt Q15819: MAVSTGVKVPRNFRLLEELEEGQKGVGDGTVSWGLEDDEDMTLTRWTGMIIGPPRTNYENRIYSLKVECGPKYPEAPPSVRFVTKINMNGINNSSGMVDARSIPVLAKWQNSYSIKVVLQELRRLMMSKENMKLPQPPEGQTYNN
UniProt Q04323: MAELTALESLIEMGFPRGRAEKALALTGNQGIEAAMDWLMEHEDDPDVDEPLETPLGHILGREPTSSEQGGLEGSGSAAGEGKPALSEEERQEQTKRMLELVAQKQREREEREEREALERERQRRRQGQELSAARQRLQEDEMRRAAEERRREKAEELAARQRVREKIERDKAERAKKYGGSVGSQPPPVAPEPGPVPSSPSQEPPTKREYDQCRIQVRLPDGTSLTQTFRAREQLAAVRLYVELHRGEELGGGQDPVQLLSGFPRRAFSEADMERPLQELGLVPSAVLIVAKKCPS
UniProt O14562: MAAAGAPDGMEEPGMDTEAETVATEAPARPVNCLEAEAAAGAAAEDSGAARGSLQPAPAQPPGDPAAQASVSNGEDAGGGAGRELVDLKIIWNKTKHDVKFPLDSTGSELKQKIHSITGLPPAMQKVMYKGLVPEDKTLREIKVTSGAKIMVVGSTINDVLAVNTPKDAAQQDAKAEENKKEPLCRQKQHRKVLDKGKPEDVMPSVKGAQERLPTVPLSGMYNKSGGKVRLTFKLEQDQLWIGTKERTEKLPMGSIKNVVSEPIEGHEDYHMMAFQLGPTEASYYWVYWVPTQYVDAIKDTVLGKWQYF
UniProt P51668: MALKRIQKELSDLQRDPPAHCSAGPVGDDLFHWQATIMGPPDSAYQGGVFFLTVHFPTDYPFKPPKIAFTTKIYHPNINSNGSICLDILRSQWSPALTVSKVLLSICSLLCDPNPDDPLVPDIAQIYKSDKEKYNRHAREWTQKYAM
UniProt Q9UHD9, whole entry, looked up: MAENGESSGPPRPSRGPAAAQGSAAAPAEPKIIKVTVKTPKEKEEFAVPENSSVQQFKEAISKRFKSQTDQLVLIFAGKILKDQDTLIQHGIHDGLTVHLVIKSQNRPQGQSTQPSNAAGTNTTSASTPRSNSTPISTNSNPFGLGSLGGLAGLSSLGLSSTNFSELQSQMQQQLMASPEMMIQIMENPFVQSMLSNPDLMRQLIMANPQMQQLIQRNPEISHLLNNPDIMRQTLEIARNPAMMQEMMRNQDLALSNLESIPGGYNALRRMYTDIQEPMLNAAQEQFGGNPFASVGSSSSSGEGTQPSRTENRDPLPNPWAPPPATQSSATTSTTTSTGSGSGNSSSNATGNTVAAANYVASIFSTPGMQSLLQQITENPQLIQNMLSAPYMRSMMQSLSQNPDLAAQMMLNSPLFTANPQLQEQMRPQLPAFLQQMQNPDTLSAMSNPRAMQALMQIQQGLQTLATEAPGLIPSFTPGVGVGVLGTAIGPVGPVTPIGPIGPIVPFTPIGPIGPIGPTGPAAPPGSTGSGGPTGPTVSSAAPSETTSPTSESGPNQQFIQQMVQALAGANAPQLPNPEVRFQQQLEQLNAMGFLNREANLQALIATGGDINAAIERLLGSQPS
UniProt Q01081: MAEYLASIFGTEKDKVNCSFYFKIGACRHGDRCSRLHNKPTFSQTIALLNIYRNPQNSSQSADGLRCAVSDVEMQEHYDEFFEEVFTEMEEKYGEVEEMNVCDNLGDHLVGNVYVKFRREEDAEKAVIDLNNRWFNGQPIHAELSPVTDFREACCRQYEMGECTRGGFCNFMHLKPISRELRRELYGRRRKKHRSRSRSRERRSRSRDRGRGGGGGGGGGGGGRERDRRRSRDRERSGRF
UniProt Q13509, whole entry, looked up: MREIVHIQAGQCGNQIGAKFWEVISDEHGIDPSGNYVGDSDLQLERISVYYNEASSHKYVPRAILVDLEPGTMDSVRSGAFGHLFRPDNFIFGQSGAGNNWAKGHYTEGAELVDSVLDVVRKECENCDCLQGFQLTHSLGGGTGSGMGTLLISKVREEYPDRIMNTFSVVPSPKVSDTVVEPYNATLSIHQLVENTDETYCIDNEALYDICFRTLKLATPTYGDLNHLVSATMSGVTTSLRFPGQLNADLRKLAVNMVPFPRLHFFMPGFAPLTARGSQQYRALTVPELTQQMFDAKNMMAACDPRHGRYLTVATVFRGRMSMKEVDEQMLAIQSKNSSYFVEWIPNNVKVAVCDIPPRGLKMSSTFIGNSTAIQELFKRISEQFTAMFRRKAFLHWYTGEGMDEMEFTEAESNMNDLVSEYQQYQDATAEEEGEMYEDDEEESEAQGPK
UniProt Q969T4: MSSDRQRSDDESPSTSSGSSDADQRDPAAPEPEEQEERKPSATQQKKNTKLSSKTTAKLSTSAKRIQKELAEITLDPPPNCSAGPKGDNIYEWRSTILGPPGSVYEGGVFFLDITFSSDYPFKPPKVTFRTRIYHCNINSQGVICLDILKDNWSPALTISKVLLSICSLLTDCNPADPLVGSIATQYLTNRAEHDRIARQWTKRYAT
UniProt P0CG48, whole entry, looked up: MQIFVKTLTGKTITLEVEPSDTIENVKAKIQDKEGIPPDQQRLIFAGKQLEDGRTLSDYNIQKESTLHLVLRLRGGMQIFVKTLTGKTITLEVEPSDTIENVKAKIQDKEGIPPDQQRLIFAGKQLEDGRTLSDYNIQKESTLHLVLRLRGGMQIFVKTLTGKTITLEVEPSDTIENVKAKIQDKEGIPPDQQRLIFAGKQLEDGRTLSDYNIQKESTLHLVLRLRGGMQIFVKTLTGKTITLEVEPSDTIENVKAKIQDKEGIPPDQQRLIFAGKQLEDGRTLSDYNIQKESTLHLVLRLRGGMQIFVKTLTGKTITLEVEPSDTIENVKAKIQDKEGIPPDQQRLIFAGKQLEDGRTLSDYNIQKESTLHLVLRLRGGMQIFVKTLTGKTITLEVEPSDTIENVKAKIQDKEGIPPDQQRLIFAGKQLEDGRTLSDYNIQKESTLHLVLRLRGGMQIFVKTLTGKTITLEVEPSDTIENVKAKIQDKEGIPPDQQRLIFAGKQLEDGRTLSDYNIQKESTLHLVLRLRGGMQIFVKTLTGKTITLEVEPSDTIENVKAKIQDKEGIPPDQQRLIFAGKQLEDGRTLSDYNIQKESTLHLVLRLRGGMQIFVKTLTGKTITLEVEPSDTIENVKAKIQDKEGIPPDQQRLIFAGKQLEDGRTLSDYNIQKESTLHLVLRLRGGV

Compound: CN1CCN(c2nc(C3=C(c4c[nH]c5ccccc45)C(=O)NC3=O)c3ccccc3n2)CC1 [sotrastaurin]
Assay: log2 fold change, soluble protein after heating vs DMSO (PISA); higher = thermal stabilisation; K562 lysate, 10 uM; active = over 0.2 and 3.5 SD of the protein, either way, in both replicates (recomputed)
Outline: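 Quantification was by TMTpro 16plex LC-MS/MS with equalised channel sums, applied to the supernatant after 21,000xg for 90 min. Samples were crude K562 extract at 1 mg/mL protein in PBS pH 7.4 with 1 mM MgCl2, treated with 10 μM compound for 30 min, heated for 3 min across 48°C-58°C, pooled and brought to 0.5% NP-40 at 4°C. Values are log-two fold changes in thermal stability relative to solvent controls, from duplicates.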

| Target | log2 fold change |
| --- | --- |
| TUBGCP3 (UniProt Q96CW5) | inactive: 0.01 |
| TUBB (UniProt P07437) | inactive: 0.017 |
| UBE2V2 (UniProt Q15819) | inactive: -0.01 |
| UBXN1 (UniProt Q04323) | inactive: 0.03 |
| UBFD1 (UniProt O14562) | inactive: -0.01 |
| UBE2D1 (UniProt P51668) | inactive: -0.021 |
| UBQLN2 (UniProt Q9UHD9) | inactive: 0.036 |
| TUFM (UniProt P49411) | inactive: 0.007 |
| U2AF1 isoform 2 (UniProt Q01081) | inactive: -0.007 |
| TUBB3 (UniProt Q13509) | inactive: 0.027 |
| UBE2E3 (UniProt Q969T4) | inactive: 0.037 |
| UBC (UniProt P0CG48) | inactive: -0.022 |

Already shown: an excerpt of the list.

| Target | log2 fold change |
| --- | --- |
| UBFD1 (UniProt O14562) | inactive: -0.01 |
| UBE2D1 (UniProt P51668) | inactive: -0.021 |
| UBQLN2 (UniProt Q9UHD9) | inactive: 0.036 |
